According to article PMC8187409, “The zinc-finger protein Red1 orchestrates MTREC submodules and binds the Mtl1 helicase arch domain” (Nature Communications, 2021):
Results are given in words; binding and its absence hold for the method and conditions named. Some binding calls cover weakened binding; strength is not graded here. For some assays here: Sequences can lack the tags named with a protein. Values belong to the binder of their own block, whether it stands above or below them.

Experiments:
[1] = molecular target: Mmi1 (spMmi1), full length (S. pombe) (UniProt O74958); test: two-hybrid; Gal4 BD and AD fusions (pGBKT7/pGADT7 or pG4BDN22/pG4ADHAN111) co-transformed into PJ69-4A; growth after 3 days at 30 °C on SDC-His (weak), SDC-His + 1 mM 3-AT (medium), SDC-Ade (strong)
[2] = molecular target: T1, Pab2 (spPab2), full length (S. pombe) (UniProt O14327); test: as above
T1 sequence: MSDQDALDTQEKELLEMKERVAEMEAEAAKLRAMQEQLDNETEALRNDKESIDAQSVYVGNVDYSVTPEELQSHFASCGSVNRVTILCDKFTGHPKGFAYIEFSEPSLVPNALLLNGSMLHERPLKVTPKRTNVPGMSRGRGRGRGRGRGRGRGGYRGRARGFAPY

[3] = molecular target: T2, Ars2 (spArs2), full length (S. pombe) (UniProt O94326); test: two-hybrid; yeast three-hybrid: bridging protein with N-terminal NLS from a modified pRS426 plasmid (ADH1 promoter) or the empty plasmid as control; growth on SDC-Leu-Trp-Ura-His
T2 sequence: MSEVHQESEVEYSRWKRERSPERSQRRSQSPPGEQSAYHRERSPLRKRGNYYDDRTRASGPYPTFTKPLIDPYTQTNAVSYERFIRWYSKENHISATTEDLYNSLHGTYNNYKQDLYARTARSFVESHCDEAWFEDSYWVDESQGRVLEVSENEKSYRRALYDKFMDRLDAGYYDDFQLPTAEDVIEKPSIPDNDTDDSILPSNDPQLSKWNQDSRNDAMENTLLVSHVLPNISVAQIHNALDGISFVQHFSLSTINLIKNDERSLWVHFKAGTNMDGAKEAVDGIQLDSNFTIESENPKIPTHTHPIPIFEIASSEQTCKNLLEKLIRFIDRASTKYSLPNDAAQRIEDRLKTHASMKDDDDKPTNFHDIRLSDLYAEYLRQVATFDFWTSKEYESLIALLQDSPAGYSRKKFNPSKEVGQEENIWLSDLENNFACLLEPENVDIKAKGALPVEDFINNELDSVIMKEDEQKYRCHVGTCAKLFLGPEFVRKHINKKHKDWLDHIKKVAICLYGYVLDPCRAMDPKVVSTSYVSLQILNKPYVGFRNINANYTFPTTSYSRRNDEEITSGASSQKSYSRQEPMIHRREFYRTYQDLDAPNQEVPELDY

[4] = molecular target: T3, Red1 (spRed1), full length (S. pombe) (UniProt Q9UTR8); test: two-hybrid; Gal4 BD and AD fusions (pGBKT7/pGADT7 or pG4BDN22/pG4ADHAN111) co-transformed into PJ69-4A; growth after 3 days at 30 °C on SDC-His (weak), SDC-His + 1 mM 3-AT (medium), SDC-Ade (strong)
T3 sequence: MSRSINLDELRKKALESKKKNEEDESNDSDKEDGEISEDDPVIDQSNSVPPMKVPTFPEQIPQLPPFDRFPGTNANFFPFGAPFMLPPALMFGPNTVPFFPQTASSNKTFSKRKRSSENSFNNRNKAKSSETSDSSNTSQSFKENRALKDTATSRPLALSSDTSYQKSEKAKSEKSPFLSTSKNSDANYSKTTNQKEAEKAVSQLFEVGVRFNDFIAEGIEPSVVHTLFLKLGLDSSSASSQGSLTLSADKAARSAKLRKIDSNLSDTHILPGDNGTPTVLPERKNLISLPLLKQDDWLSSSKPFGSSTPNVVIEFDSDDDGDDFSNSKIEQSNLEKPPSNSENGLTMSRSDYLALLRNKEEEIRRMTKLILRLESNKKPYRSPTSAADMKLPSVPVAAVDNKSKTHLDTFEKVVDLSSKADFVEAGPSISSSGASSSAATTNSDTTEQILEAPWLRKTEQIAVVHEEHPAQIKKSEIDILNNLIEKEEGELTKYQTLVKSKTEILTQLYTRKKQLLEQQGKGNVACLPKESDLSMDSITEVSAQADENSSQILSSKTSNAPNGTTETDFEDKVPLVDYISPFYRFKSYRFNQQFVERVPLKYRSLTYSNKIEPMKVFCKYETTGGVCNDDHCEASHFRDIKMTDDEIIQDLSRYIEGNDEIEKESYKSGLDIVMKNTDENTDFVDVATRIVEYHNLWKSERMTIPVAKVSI

[5] = molecular target: T4, GST-tagged spRed1 peptide (D33A, E35A) (S. pombe); test: pull-down; GST pull-down: bait with 1.5 molar excess of prey, 20 mM HEPES pH 7.5, 150 mM NaCl (or higher, up to 600 mM or 1.5 M in the washes), 5% glycerol, 0.1% NP-40, 4 °C, glutathione agarose; SDS-PAGE, Coomassie; both purified
T4 sequence: SDKEAGAISEDDP

- binding [1]: binds
- binding [2]: binds
B1: Mmi1 (spMmi1), full length (protein, UniProt O74958 1-488)
chain: MSNTNFSTSRSSKSIPELPNLEALRSLWPPPSLNESGDTRSVWTTHTGEPVASSVLSTSGSNNFSSPLKRPAPESHDAPIGRRLMVDDPRLIKHGKYDFSRHCTDYGHSYEWPYFRSLRRESMLYHTSGSYPESQPPYSSYSTDAPHYYHAGSESSAYYDSRSRLHGIQPPPKRRTLSPPPRRLADPVVVGSSRYVEEEVYRRPPYTLASEVPSSASAYQAGYSSYPVRSSPQLSHEDTRHGIASSGSTRYPFVPANTRASHSPSLLEPYAHSLPSSVAPVGAYPEKSSYLLSNSSNDSASRKEKPKARASTPPPLNFSRASEHRNEKGERISMINPRVVLDENGISHRSRYFIMLCDNETAIAHAKKTSIWAVKKDSSKRISDAYKKASVYFIFVAQQTYNALGYAQVVSDLNSTELPFWSDSSHAGGVRIKWIKTCNLFSAEISEIVSHMDHGSEARDGMEMMYDEGSRLCTLINYAIMKRIGRDR

- binding [3]: binds
B2: CBC complex (Cbc1 fused to Gal4 AD with untagged Cbc2) (complex, UniProt O14253 1-780; Q9P383 1-182)
chain 1: MSSYRGSTRPRKRTREGENYGFRPHRGNSQELLAARIKKDITFLADPRGNSVAADDINYVAMSLSREANDPETISTILDCIQTTAFIIPVKIPHLATLIIRASLRVPLILEKAAAYFCLQYFTNLNSFLYYEAKVDLRMLICMSFALQPGTLKPLFSLLADAISKETKPSVWGDNFLRIILINLPYFIAANNDLGKKDFANEILDQCEIYVRHRKSSITLSNPLSIHDNLSEEELDLLYKQLILSRENDFTFPYISQPWKFFESDFVHIVPVSPSIPEWTFQPTPQQNELPSFKRFFELFNNFEIRTTPDASDVAASIFRDISVDVINHLEFNRVEAAQVLTDLDVYFTYKTFALRGTPVNELPNLDPSESRWKAEDIIVEAVLGELLGSQNTTYKPVYYHSLLIECCRIAPKILAPTFGRVIRLMYTMSSDLPLQTLDRFIDWFSHHLSNFNFHWKWNEWIPDVELDDLHPKKVFMRETITRELILSYYTRISDSLPEELRCLLGEQPSGPNFVYENETHPLYQQSSQIIEALRLHKPLEELDIILQSEEIQNSETSAVRLVMSCAYSLGSRSFSHALNVFEKHLNTLKHFSRKSLDSEIEVVDELFSFWKLQPFNAVMWLDKMLNYSIISITSIIEWLIKQDVTIWSRSYTWSLVNTTFNKLAARLRRSVSNKEDSSLINEANEEKEIVTNLLLSALRALISENAENIWVSHWLNLMLKYVESNFLSVKKDTIEEANEPVQENTSEEQEDTKMQPVDAVDEQPSENNQTAADATNEEK
chain 2: MASITRLDAVSPYLIRRFKNDLRALDAVKQSNCVYVGNLSFYTTEEQIYALFSKCGEIRRIIMGVDRFTKTPCGFCFVEYFENQDALDSLKYISRTSLDERIIRADLDHGYEEGRQYGRGASGGQVRDEMREEFDPGRGGYAKNRQPTSSRQLANYSGISSAPLGSSLELQSNPRYNRWKKN

- binding [4]: binds
B3: Pla1 (spPla1), canonical poly(A) polymerase, full length (enzyme, UniProt Q10295 1-566)
chain: MTTKQWGITPPISTAPATEQENALNTALINELKNQNLFESPAESEKRVKVLDELQQITTEFVKKVSLAKHMNEKMANEAGGKIFTYGSYRLGVYGPGSDIDTLVVVPKHVSRDNFFQDLEPMLREREEVTDLAAVPDAYVPIIKFKFLGISIDLIFARLSVPRVPRDLELSDNNLLKGVEERCVLSLNGTRVTDQILQLVPNRAVFKHALRAIKFWAQRRAIYANVVGFPGGVAWAMMVARICQLYPNAVSSVIVAKFFRILHQWNWPQPILLKPIEDGPLQVRIWNPKLYPSDKAHRMPIITPAYPSMCATHNITLSTQTIILREMVRAGEIADQIMVKALPWSALFQKHDFFHRYKHYLTITAAAKTAEAQLKWAGLVESKLRHLVTRLELVDAIALAHPFNKGFDKVYNCSSEEEAQQVASGVTLEVAYESTDHEKLANDTVNEEKADNTESKADGSENGEKQIFPVYTTTCYIGLELEKKKGHPIKRLDISWPTQEFYELCKKWDKYDDTLMNVFIKNTKNTALPDEVFEPGEERPKATKKRSTADTAHSTEQLKRQKVSTA

- binding [5]: no binding
B4: full-length spArs2 (in vitro binding) (protein, UniProt O94326 1-609)
chain: T2 sequence
